PubChem BioAssay AID602196 – INSERM – 2012

Purpose: 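Modifiers of cisplatin sensitivity in A549 cells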
System: human A549 lung cancer cells
Knock-down reagent: siRNA pair against human genes
Duration: 48 h transfection before cisplatin; time from cisplatin to read-out not stated
Treatment: cisplatin at a dose killing half of control-siRNA cells; exact dose and duration not given
Measurement: 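Cisplatin cell death as a shift from the 50% death seen with control siRNA; siRNAs toxic or growth-blocking alone scored 0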
Direction: two-siRNA summed score (-2 to +2): higher = both siRNAs protect from cisplatin killing; -2 means both sensitise; mean protection from cisplatin (shift in death) and protection from cisplatin (shift in death), siRNA C: higher = protection from cisplatin killing
Active means: 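Each siRNA scores 0 if harmful alone by LDH or WST-1, otherwise +1 if it reduces and -1 if it increases cisplatin killing; a gene is active when both siRNAs agree (sum +2 or -2)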
Meaning of the calls: active = both siRNAs shift cisplatin killing the same way; inactive = no consistent shift, or siRNA harmful alone
Here is a random part of about 23,000 reagents tested. In the full data, 455 (2%) got an active call. 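Active includes both protection and sensitisation; some change values fall well beyond the stated -50 to +50 range.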 Unmarked entries are inactive. Not all columns of the deposit are shown. The record does not give: the amount of reagent.

no.	Target gene	PubChem SID	two-siRNA summed score (-2 to +2)	mean protection from cisplatin (shift in death) (%)	protection from cisplatin (shift in death), siRNA C (%)
1	MYO5C	SID131519535	1	6.2	14.1
2	LOC402232	SID131520388	1	9.7	-1.7
3	LOC147975	SID131517202	0	12.7	11.9
4	LOC389685	SID131521908	1	15.4	19
5	IL1R1	SID131500827	-1	-15.5	-12.2
6	CDH2	SID131507339	0	-0.3	11.3
7	MX2	SID131504762	0	-4.5	0
8	SPIRE1	SID131514860	0	8.3	10.4
9	OLA1	SID131508424	0	1	-5.4
10	ASPN	SID131506912	0	-0.8	-8.9
11	ZNF641	SID131514503	0	7.9	6.3
12	LOC132556	SID131511308	0	4.2	6.1
13	ENTPD4	SID131502100	-1	-5.3	1.2
14	LOC387777	SID131517734	0	14.5	20.4
15	GSDME	SID131510302	0	3.1	11
16	WDR88	SID131507160	0	-0.5	2.9
17	LAMC3	SID131521243	1	12.8	28.2
18	ZBTB1	SID131515772	0	9.7	10.2
19	OR6C6	SID131513589	0	6.8	10.3
20	SDCBP2	SID131512901	0	6	2.8
21	ATP5PD	SID131510783	0	3.6	5.8
22	VPREB3	SID131507834	0	0.3	-6.5
23	CLDN22	SID131522726	1	22.4	29.3
24	TRIM53CP	SID131515812	0	9.7	7.2
25	IFNA14	SID131516814	0	11.7	8.6
26	PIK3R3	SID131500816	-1	-15.6	-17.3
27	EN2	SID131521162	1	12.4	20.9
28	OR12D3	SID131520347	1	9.6	13.3
29	LOC440680	SID131520971	1	11.7	8.9
30	BIRC5	SID131508316	0	0.9	2.8
31	SLC35A4	SID131511914	0	4.9	2.8
32	TRMT1	SID131500982	-1	-13.6	-29.1
33	BCL2L11	SID131516070	0	10.2	7
34	JKAMP	SID131507589	0	0.1	-8.3
35	DERL3	SID131513690	0	6.9	8.6
36	LOC388375	SID131505018	0	-4	1.4
37	DCDC2	SID131508038	0	0.5	-4.8
38	LAIR1	SID131509093	0	1.8	3.4
39	CD86	SID131518529	0	21.1	13.1
40	SLC39A14	SID131517206	0	12.7	15.2
41	RNASEH1	SID131506399	0	-1.6	0.9
42	VWA7	SID131511911	0	4.9	8.4
43	DNMT3B	SID131509381	0	2.1	13
44	NOL11	SID131510400	0	3.2	-5.9
45	LOC388140	SID131503811	0	-7.7	1.8
46	IFIT3	SID131511073	0	4	12
47	NFS1	SID131516138	0	10.3	-2.6
48	HNF4G	SID131501444	-1	-9.7	16.8
49	NEMP1	SID131519478	1	5.8	-4.8
50	LOC391510	SID131517188	0	12.7	29.4
51	CERK	SID131508952	0	1.6	-10.3
52	FLJ41821	SID131508900	0	1.6	2.6
53	S100P	SID131502130	-1	-5.1	-12.5
54	KIF23	SID131511865	0	4.8	11.9
55	SPDYC	SID131506261	0	-1.8	-15.6
56	LOC344172	SID131521987	1	15.7	15.3
57	LOC390877	SID131522363	1	17.9	25.3

Ordered by “mean protection from cisplatin (shift in death) (%)” (descending): 6 of the entries above
Target gene	PubChem SID	two-siRNA summed score (-2 to +2)	mean protection from cisplatin (shift in death) (%)	protection from cisplatin (shift in death), siRNA C (%)
EN2	SID131521162	1	12.4	20.9
LOC440680	SID131520971	1	11.7	8.9
OR12D3	SID131520347	1	9.6	13.3
SLC35A4	SID131511914	0	4.9	2.8
BIRC5	SID131508316	0	0.9	2.8
TRMT1	SID131500982	-1	-13.6	-29.1
